# Percent effect of library compounds

Chains of the proteins cited; added tags and fusions are not shown. Residues count along the entry.
UniProt Q4DA54, 1-478: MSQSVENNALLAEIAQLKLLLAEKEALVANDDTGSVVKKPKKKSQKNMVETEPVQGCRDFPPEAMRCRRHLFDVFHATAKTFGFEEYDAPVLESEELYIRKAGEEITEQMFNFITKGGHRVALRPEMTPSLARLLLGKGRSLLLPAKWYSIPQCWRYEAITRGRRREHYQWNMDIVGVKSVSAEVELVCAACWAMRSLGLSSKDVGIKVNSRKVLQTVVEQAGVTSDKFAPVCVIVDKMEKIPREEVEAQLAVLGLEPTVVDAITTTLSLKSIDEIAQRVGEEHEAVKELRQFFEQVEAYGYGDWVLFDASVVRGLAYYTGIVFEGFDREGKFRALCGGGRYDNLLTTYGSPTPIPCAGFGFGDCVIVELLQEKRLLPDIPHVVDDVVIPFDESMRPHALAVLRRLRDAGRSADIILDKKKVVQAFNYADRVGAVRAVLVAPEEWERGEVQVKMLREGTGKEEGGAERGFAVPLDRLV
UniProt A4I591, 1-473: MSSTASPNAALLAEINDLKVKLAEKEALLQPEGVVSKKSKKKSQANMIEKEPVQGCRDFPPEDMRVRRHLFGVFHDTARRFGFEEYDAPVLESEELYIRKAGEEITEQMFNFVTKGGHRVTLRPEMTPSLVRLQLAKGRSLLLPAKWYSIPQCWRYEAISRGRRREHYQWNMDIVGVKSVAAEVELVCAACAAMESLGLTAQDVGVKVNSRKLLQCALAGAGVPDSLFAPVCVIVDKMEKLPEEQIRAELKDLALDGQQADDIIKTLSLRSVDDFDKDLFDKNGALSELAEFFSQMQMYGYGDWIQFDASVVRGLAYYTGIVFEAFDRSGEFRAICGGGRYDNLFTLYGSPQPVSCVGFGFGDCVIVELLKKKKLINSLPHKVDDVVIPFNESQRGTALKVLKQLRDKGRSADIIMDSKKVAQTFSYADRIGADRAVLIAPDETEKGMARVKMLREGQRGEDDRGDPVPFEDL

TcHisRS: 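Enzyme assay of histidyl-tRNA synthetase; the read-out is not stated. Target: Histidine-tRNA ligase, Trypanosoma cruzi CL Brener (UniProt Q4DA54). Compounds at 30 µM. The record gives no direction; compounds that gave an IC50 in retests scored well above the rest, so higher reads as stronger inhibition. Size under these conditions: about 69,000 compounds, about 31 of them at 50% or above in at least one test.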
LiHisRS: 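Enzyme assay of histidyl-tRNA synthetase; the read-out is not stated. Target: Histidine-tRNA ligase, Leishmania infantum (UniProt A4I591). Compounds at 30 µM. Direction is inferred from retests: higher values go with stronger inhibition. The assay is labelled LdHisRS but filed under L. infantum. Of about 69,000 compounds tested this way, about 410 (0.6%) reached 50% or more in at least one test.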

Results are given as percent effect. The controls that fix the scale are not given in the record; negative values are as filed. This is an unselected part of the compounds tested.

Compound,TcHisRS,LiHisRS
Nc1nc2c(c3c1C(=O)NC3=O)CCC2,-2.484,5
Cc1nc[nH]c1C(=O)N1CCC2(CN(C)C(=O)O2)C1 (centres undefined),-1.01,16.39
CCn1nccc1CNC(=O)C1CCCCC1,3.509,5.31
Cc1ccc2c(n1)N(C)CCN(C(=O)NC(C)C)C2,5.882,22.86
COc1ccc(NC(=O)N2CCC(c3nnc[nH]3)CC2)cc1C,5.978,2.667
O=C(CN1CCCS1(=O)=O)Nc1ccc(OC2CCCC2)cc1,0,13.43
CCc1nnc(NC(=O)CCN2CC=C(c3cnn(C)c3)CC2)s1,8.929,23.01
CCS(=O)(=O)N1CCOC2(CCCN(c3ccc(C)nn3)C2)C1 (centres undefined),3.784,9.434
CCNc1ccnc(CN2CCCC2C(=O)Nc2nccs2)c1 (centres undefined),1.667,8.108
OCCNc1nc(NCc2cccnc2)nc2nccnc12,-2.062,9.89
CC(=O)N1CCC2(CC1)C(=O)N(c1ccc(C)nc1)CCN2CC(C)C,3.797,12.07
CCN1CC(C(=O)N2CCC(Oc3ccccc3Cl)CC2)CC1=O (centres undefined),4.959,-5.714
O=C(c1ccc(=O)[nH]n1)N1CCC(CN2CCOCC2)CC1,9.914,18.99
CCOc1cccc(C(=O)N2CCC3(CC2)[C@H](O)C[C@@H]3OC)c1,7.182,12.68
CSCc1noc(CN2CC(Cc3ccccc3)CC2=O)n1 (centres undefined),4.878,22.89
CN(CC(=O)N1CCC(Cc2cccc(C(N)=O)c2)C1)C1CCCC1 (centres undefined),-5.528,5.6
CCCS(=O)(=O)N1C[C@@H](Oc2ccccn2)[C@H]2OCCC[C@H]21,2.151,9.735
Cc1noc(C)c1C(=O)NCC(c1ccsc1)N(C)C (centres undefined),3.488,12.5
CSc1nccc(N2CCC(NCc3ccc4c(c3)OCO4)CC2)n1,6.25,30.09
OC1(CNc2ccc(-c3nc(C4CC4)no3)cn2)CCCCC1,-3.226,-11.11
Cc1nc(C)c(C(C)NC(=O)NCCNc2cccc(F)c2C#N)s1 (centres undefined),2.646,5.882
O=C(NC[C@]1(O)CCN(Cc2ccsc2)C[C@H]1O)c1c[nH]cn1,4.857,4.027
CC1=C[C@@H](CN2CCOCC2)[C@H](C(C)C)C[C@H]1Cc1nnc(C)o1,-1.493,5.405
CCOc1cc(/C=C/c2ncc(C(=O)NC)s2)ccc1OC,3.448,9.821
O=C(CCc1ccco1)NS(=O)(=O)N1CCOc2ccccc21,10.88,19.1
CCOC1COC2(CCN(c3ccccn3)CC2)C1 (centres undefined),11.11,24.53
CC(O)CN1CCC(CNCc2cccc(OC(F)(F)F)c2)CC1 (centres undefined),3.529,14.68
CC(C)NC(=O)c1cc2c(nc1N(C)C)CCN(S(=O)(=O)C1CC1)CC2,8.743,7.018
NC(=O)C1CCN(Cc2ccc(S(=O)(=O)N3CCCC3)o2)CC1,3.665,13.79
COCC(=O)N1CCCC(C)(c2nncn2C)C1 (centres undefined),5.303,7.042
Cc1nc2c(c(=O)[nH]1)CCN(Cc1ccc3c(c1)CCCN3C)C2,3.143,6.711
Cc1c(NCc2ccccc2C#N)cccc1-n1cnnn1,6.186,22.86
Cc1nc(CN2CCc3ncnc(C)c3CC2)cs1,3.867,10.53
CC(NC(=O)C1=NN(C)C(=O)CC1)c1ccc(Cl)cc1 (centres undefined),3.067,19.75
Cc1ccsc1C1CCCCCN1Cc1cn(C)nc1C (centres undefined),8.543,15.73
c1ccc(CN2CCC(c3nccnc3-n3ccnc3)CC2)cc1,2.247,8
O=C(Cc1ccc(F)cc1)N1C[C@H]2CCN[C@H]2C1,0,7.692
CC(C)CN1CCC2(C=C(C(=O)NC3CC3)c3ccccc32)CC1,3.883,3.846
Cc1ncc(-c2ccnc(N3CCCCCC3)n2)c(-c2cccnc2)n1,4.151,20.27
CCc1ccc(OCCN(C)C(=O)c2ccncc2Cl)cc1,3.261,12.12
CN(Cc1ccco1)Cc1cncc2c1CCN(S(C)(=O)=O)C2,1.905,8.333
O=C(O)c1cc(N2C[C@H](NC(=O)C3CCOCC3)[C@@H](C3CC3)C2)ccn1,1.622,-2.74
CC(C)c1nc(C2CCCN2CC(=O)Nc2nncs2)no1 (centres undefined),-1.887,14.86

The values are deposited in ChEMBL (CHEMBL3988442, “University of Dundee, Small-Polar-MMV Screening Library” (2021)).